Assay results as given in patent US8288352B2 (priority 2004, dated 2012).

Experiment: general procedure: solution-phase peptide synthesis; DEPC/DIEA; HATU/DIEA or pyridine
Conditions: for conjugation yield: conjugation step

Substance | step yield (late stage modification step) | conjugation yield | further results
4-Abz-Val-Dil-Dap-Phe-OMe | – | – | step yield (late stage modification step, on Val-Dil-Dap-Phe-OMe): 42% yield
4-Abz-Val-Dil-Dap-Phe-OtBu | 64% yield | – | –
Cbz-Val-Dil-Dap-Phe-OMe | – | – | step yield (coupling step): 59% yield
Fmoc-4-Abz-Val-Dil-Dap-Phe-OtBu | – | – | step yield (coupling step): 48% yield
MC-4-Abz-Val-Dil-Dap-Phe-OtBu | – | 42% yield | –
MC-Val-Cit-4-Abz-Val-Dil-Dap-Phe | 91% yield | – | –
MC-Val-Cit-4-Abz-Val-Dil-Dap-Phe-OMe | – | 2.8% yield | –
MC-Val-Cit-4-Abz-Val-Dil-Dap-Phe-OtBu | – | 53% yield | –
Val-Dil-Dap-Phe-OMe | 97% yield | – | –
